This test addresses T1, survival motor neuron (SMN) protein, Drosophila (Drosophila melanogaster (endogenous in larval muscle)) (UniProt Q9VV74).
T1 sequence: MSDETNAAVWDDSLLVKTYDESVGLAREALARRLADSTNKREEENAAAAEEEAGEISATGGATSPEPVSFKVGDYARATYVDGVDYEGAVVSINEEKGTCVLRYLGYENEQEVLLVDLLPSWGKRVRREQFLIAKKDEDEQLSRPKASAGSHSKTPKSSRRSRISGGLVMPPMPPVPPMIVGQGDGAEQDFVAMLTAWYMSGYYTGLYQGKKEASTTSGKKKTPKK
Description: co-IP; Protein A beads with rabbit anti-SMN; lysate of about 30 larval body wall muscle fillets per IP from CFP::Gemin3 transgenic larvae; lysis buffer 50 mM Tris pH8, 150 mM NaCl, 1 mM EDTA, 1% NP-40; blot probed with mouse anti-GFP; non-specific serum as negative control.

We go through 1 molecule from PMC2577925.

No constants are given. Whether binding was seen depends on the method and setting. In cells and extracts the contact can be indirect. Some results given as binding are weak or reduced against the parent protein; the word gives no strength. Sequences can lack the tags named with a protein.

B1: CFP::Gemin3 fusion protein (Drosophila melanogaster Gemin3) (protein, UniProt Q9V3C4 1-1028)
chain: MEREIAHSLAGGEERSSDVAPGQVKTFEELRLYRNLLNGLKRNNFVTPTKIQAAAIPMALAKMDLIIQSKSGTGKTLIYVIAVVQSFNPNINQPHAMIVVPTRELAIQVQDTFFHLCKSFRDFKCSAFIGGTDVAKDRKRMNESRVIIGTPGRLLHLYENRVFDVSKLRLLVLDEADQLYQTKSLQHTVSKLIEAMPKNRQIIACSATYDQNLDERLAKVMDKPMLISNSERATVLLGIRQFVYELPQQNNSVEEMRLKLQILGQIFNQLPYEQAIIFASSQMRADSYKNYLTASGIDCHLISGAMEQSERLHVFEGYRNFTMRILVATDLMARGVDSPHANLVINIDPPQDHVTYLHRIGRAGRFGSKGIAITFIASKKESQRFREMSKKIATAWSVLEFPKEPMPNEFNFWDFEKYNFDYYIKEENPLQEMPMPIKENRSKENVDASSVDLENLQKDQDGKRRDPDKLPVALENVETQKELELENLPESSHNNKNLRVKEKEIVRQGKLKETNSKAGGSKTNKTERRKKSNTPSKLQKQITEVQQTPEITVNKYYMQEDIQRTADGKEYHPVNGAGNHQVPSKSNQKPVEFISPELTPTLTPLELTQEPSPTTVTPPAPPANSINNKTYCLAAPTQTSSMTIQNMVISNTVDDASSISSDSMVVCGYHSDRSYDTYYATSDEEEIWNRLMSKQRRQLKSKRGHGKRRVILYKKVFPKLKANVKRKLKKRMSSSCRSKKAHHLRKRHVYKNISLLPHMNLCHLLQKFTNQERFLKRLHKYAKNQFIDNARVGFLLDKLYKSILEMYYNSAKERKKHFKEAMKESLKSIDNYESQESSESEEEEEEEKDLKNKLSVHVTNQMDIPPMPQAAVEIGSGSESDTEDSQEYGEGEEIIVDDEDDGSDGGPNSSSGFVESQESVSSGIDTSVYETESTGASGNNSSAFFISDDESDTESLTDSEAGSNVSATGSSSQRSSVASSTYESSDDDSVTVTNVSSMQNAQSLWLQTFNMQYQFIASHVAKNLQNYY
Turning to B1, the binding entry is “binds”.
